21 substances from article PMC6787163 (Frontiers in Chemistry, 2019) can be followed below.

Square brackets hold non-standard residues; d marks the D form. Lys(N3) = [N-]=[N+]=NCCCC[C@H](N)C(=O)O

The series in a line: general procedure: Fmoc solid-phase peptide synthesis; Tentagel S-RAM (~0.22 mmol/g); HCTU, DIPEA (TLR7 ligand coupling). Conditions: for conjugation yield: conjugation step; for step yield: late stage modification step; for isolated mass / isolated yield: whole synthesis.

In the case of “Ac-Lys(1,2-Man2)-Gly-Lys(1,2-Man2)-Gly-Lys(1,2-Man2)-Gly-Lys-NH2”, the conjugation yield by setting is: (run 1) 80%; (run 2) 33%. Turning to “Ac-Lys(1,2-Man2)-Gly-Lys(1,2-Man2)-Gly-Lys-NH2”, the conjugation yield worked out at 41% (run 1) and 49% (run 2).

Substance “Ac-Lys(1,2-Man2)-Lys(1,2-Man2)-Lys(1,2-Man2)-Lys(1,2-Man2)-Lys(1,2-Man2)-Lys(1,2-Man2)-Gly-Lys(pent-4-ynoic amide)-NH2” returned a step yield of 96%. As for “Ac-Lys(1,2-Man2)-Lys(1,2-Man2)-Lys(1,2-Man2)-Lys(1,2-Man2)-Lys(1,2-Man2)-Lys(1,2-Man2)-Gly-Lys-NH2”, the conjugation yield by setting is: (run 1) 98%; (run 2) 62%. In the same order, the values of “Ac-Lys(1,3-Man2)-Gly-Lys(1,3-Man2)-Gly-Lys(1,3-Man2)-Gly-Lys-NH2” are 82% and 96%.

For “Ac-Lys(1,3-Man2)-Gly-Lys(1,3-Man2)-Gly-Lys-NH2”, the conjugation yield is 14% (run 1) and 99% (run 2). For the substance “Ac-Lys(1,3-Man2)-Lys(1,3-Man2)-Lys(1,3-Man2)-Lys(1,3-Man2)-Lys(1,3-Man2)-Lys(1,3-Man2)-Gly-Lys-NH2”, the conjugation yield reads like this: (run 1) 99%; (run 2) 62%. Consider “Ac-Lys(1,6-Man2)-Gly-Lys(1,6-Man2)-Gly-Lys(1,6-Man2)-Gly-Lys-NH2”, for which the conjugation yield reads like this: (run 1) 85%; (run 2) 90%. With “Ac-Lys(1,6-Man2)-Gly-Lys(1,6-Man2)-Gly-Lys-NH2”, the conjugation yield (run 1) was found to be 28% and the conjugation yield (run 2) worked out at 76%. In the case of “Ac-Lys(1,6-Man2)-Lys(1,6-Man2)-Lys(1,6-Man2)-Lys(1,6-Man2)-Lys(1,6-Man2)-Lys(1,6-Man2)-Gly-Lys-NH2”, the conjugation yield is, setting by setting: (run 1) 57%; (run 2) 56%.

For Ac-Lys(Gal)-Gly-Lys(Gal)-Gly-Lys-NH2, the conjugation yield is 53%. In the case of “Ac-Lys(Man1)-Gly-Lys(Man1)-Gly-Lys(Man1)-Gly-Lys-NH2”, the conjugation yield was found to be 69% (run 1) and 63% (run 2).

On to Ac-Lys(Man1)-Gly-Lys(Man1)-Gly-Lys-NH2, for which the conjugation yield is recorded as 61% (run 1) and 19% (run 2).

For “Ac-Lys(Man1)-Lys(Man1)-Lys(Man1)-Lys(Man1)-Lys(Man1)-Lys(Man1)-Gly-Lys-NH2”, the conjugation yield by setting is: (run 1) 82%; (run 2) 59%. Taken in the same sequence, the figures for “Ac-Lys(Man3)-Gly-Lys(Man3)-Gly-Lys(Man3)-Gly-Lys-NH2” were 80% and 51%. In the case of Ac-Lys(Man3)-Gly-Lys(Man3)-Gly-Lys-NH2, the conjugation yield by setting is: (run 1) 43%; (run 2) 49%. Substance “Ac-Lys(Man3)-Lys(Man3)-Lys(Man3)-Lys(Man3)-Lys(Man3)-Lys(Man3)-Gly-Lys(pent-4-ynoic amide)-NH2” displayed a step yield of 94%. In the case of “Ac-Lys(Man3)-Lys(Man3)-Lys(Man3)-Lys(Man3)-Lys(Man3)-Lys(Man3)-Gly-Lys-NH2”, the conjugation yield stood at 85%.

On to “Ac-Val-Thr-His-Thr-Tyr-Leu-Glu-Pro-Gly-Pro-Val-Thr-Ala-Asn-Arg-Gln-Leu-Tyr-Pro-Glu-Trp-Thr-Glu-Ala-Gln-Arg-Leu-Asp-Cys-Trp- -Gly-Lys(Peg-TLR7L)-NH2”, for which the isolated mass turned out to be 1.03 mg. Further, the isolated yield (over 35 couplings, scale of the general procedure 100 μmol (azidolysine backbones), 100–250 μmol (gp100 peptid)) was 0.23%. Substance “Ac-Val-Thr-His-Thr-Tyr-Leu-Glu-Pro-Gly-Pro-Val-Thr-Ala-Asn-Arg-Gln-Leu-Tyr-Pro-Glu-Trp-Thr-Glu-Ala-Gln-Arg-Leu-Asp-αAbu-Trp-Arg-Gly-Lys(Peg-TLR7L)-NH2” yielded an isolated yield (over 35 couplings, scale 100 µmol) of 1.78%. This substance registered an isolated mass (scale 100 µmol) of 7.85 mg. In the case of “Ac-[Lys(N3)][Lys(N3)][Lys(N3)][Lys(N3)][Lys(N3)][Lys(N3)]GK-NH2”, under “scale 100 umol”, the isolated mass was 51.57 mg and the isolated yield worked out at 44.1%.
